# No constants are given. Whether binding was seen depends on the method and setting. Some results given as binding are weak or reduced against the parent protein; the word gives no strength. Sequences can lack the tags named with a protein.
# T1: Annexin A1 (UniProt P04083)
# T1 sequence (looked up): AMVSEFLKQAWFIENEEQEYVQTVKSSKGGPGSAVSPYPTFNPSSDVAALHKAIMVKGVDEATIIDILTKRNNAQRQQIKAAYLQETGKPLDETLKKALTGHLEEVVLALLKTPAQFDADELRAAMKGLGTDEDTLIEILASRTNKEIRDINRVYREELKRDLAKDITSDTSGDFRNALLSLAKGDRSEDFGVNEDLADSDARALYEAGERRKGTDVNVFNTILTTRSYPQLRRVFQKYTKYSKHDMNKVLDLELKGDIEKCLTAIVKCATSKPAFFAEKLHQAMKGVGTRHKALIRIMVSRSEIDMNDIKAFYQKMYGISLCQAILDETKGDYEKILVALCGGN
# Biological target: T1, Annexin A1
# Experiment: phage ELISA, Annexin A1 immobilized on plate, anti-M13-HRP, OD450
row,Binder,binding
1,KWGHEVW [Annexin A1 binding polypeptide Number 2 (KWGHEVW)],binds
2,WWGHEQW [Annexin A1 binding polypeptide Number 3 (WWGHEQW)],binds
3,RDSQSWSWS [Annexin A1 binding polypeptide Number 34 (…)],binds
4,MLHHHQRE [Annexin A1 binding polypeptide Number 27 (MLHHHQRE)],binds
5,VRTDWYSMLM [Annexin A1 binding polypeptide Number 41 (…)],binds
6,IQRGGVDWS [Annexin A1 binding polypeptide Number 33 (…)],binds
7,LVLKGKWH [Annexin A1 binding polypeptide Number 31 (LVLKGKWH)],binds
8,WMGHSAW [Annexin A1 binding polypeptide Number 16 (WMGHSAW)],binds
9,ELFDGYD [Annexin A1 binding polypeptide Number 22 (ELFDGYD)],binds
10,STDSNWFFNA [Annexin A1 binding polypeptide Number 39 (…)],binds
11,LWGHQIW [Annexin A1 binding polypeptide Number 6 (LWGHQIW)],binds
12,MGSKMWG [Annexin A1 binding polypeptide Number 20 (MGSKMWG)],binds
13,WPWEANH [Annexin A1 binding polypeptide Number 23 (WPWEANH)],binds
14,LWGHGMW [Annexin A1 binding polypeptide Number 7 (LWGHGMW)],binds
15,PWAKIFW [Annexin A1 binding polypeptide Number 19 (PWAKIFW)],binds
16,SGFGHMIW [Annexin A1 binding polypeptide Number 25 (SGFGHMIW)],binds
17,GIHHPIW [Annexin A1 binding polypeptide Number 17 (GIHHPIW)],binds
18,LWGHHIW [Annexin A1 binding polypeptide Number 5 (LWGHHIW)],binds
19,IINGWNPIW [Annexin A1 binding polypeptide Number 36 (…)],binds
20,VEGQQWW [Annexin A1 binding polypeptide Number 15 (VEGQQWW)],binds
21,VEWPWW [Annexin A1 binding polypeptide Number 12 (VEWPWW)],binds
22,AFHNDPAE [Annexin A1 binding polypeptide Number 29 (AFHNDPAE)],binds
23,MPENWISWYR [Annexin A1 binding polypeptide Number 40 (…)],binds
24,AWGHPFW [Annexin A1 binding polypeptide Number 8 (AWGHPFW)],binds
25,IDYGLF [Annexin A1 binding polypeptide Number 14 (IDYGLF)],binds

# Results, then the binder that gave them:
row,binding,Binder
1,binds,LLFSDIGN [Annexin A1 binding polypeptide Number 30 (LLFSDIGN)]
2,binds,ALHNEPHT [Annexin A1 binding polypeptide Number 28 (ALHNEPHT)]
3,binds,WGGHPIW [Annexin A1 binding polypeptide Number 18 (WGGHPIW)]
4,binds,LLESQNPQD [Annexin A1 binding polypeptide Number 35 (…)]
5,binds,IYDGNWSYWH [Annexin A1 binding polypeptide Number 38 (…)]
6,binds,ETRFHAIW [Annexin A1 binding polypeptide Number 26 (ETRFHAIW)]
7,binds,DWTTAYGPS [Annexin A1 binding polypeptide Number 37 (…)]
8,binds,QWGHTLW [Annexin A1 binding polypeptide Number 1 (QWGHTLW)]
9,binds,SGNGKPFWM [Annexin A1 binding polypeptide Number 32 (…)]
10,binds,SLNSIL [Annexin A1 binding polypeptide Number 10 (SLNSIL)]
11,binds,MLWEDQD [Annexin A1 binding polypeptide Number 21 (MLWEDQD)]
12,binds,NLNAWF [Annexin A1 binding polypeptide Number 11 (NLNAWF)]
13,binds,MIQTSSANRD [Annexin A1 binding polypeptide Number 42 (…)]
14,binds,EQYGFPF [Annexin A1 binding polypeptide Number 24 (EQYGFPF)]
15,binds,PWGHEIW [Annexin A1 binding polypeptide Number 4 (PWGHEIW)]
16,binds,WLWPRL [Annexin A1 binding polypeptide Number 13 (WLWPRL)]

# — patent US20130108639A1
